Laboratory results reported in patent publication US20250041252A1, “POWDERS FOR INHALATION AND PRODUCTION PROCESS THEREOF” (UNIVERSITA' DEGLI STUDI DI PARMA, priority 2021, published 2025).

Conditions: PBS pH 7.4, 37° C.

Compound: CCN(CC)CC(=O)Nc1c(C)cccc1C [Lidocaine powder raw material, lidocaine]
- time to complete dissolution (about 8 mg lidocaine): 15 min
- Dissolved lidocaine (about 8 mg of LANE, end of test): 7.9 ± 0.4 mg
